In US20240218078A1:
These are yes or no findings as the source states them, for the method shown. Some entries that bind do so weakly or less than the wild type. Sequences can lack the tags named with a protein. Blank lines part the entries; values can stand above or below the binder they belong to.

Biological target: T1, recombinant GM2AP (GM2-activator protein tagged with eight histidines, SEQ ID NO: 3) (human) (UniProt P17900)
T1 sequence: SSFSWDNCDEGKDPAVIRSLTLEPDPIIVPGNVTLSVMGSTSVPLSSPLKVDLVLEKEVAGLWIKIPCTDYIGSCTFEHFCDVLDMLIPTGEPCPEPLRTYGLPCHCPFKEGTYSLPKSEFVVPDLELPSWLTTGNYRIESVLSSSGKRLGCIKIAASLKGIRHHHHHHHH
Assay: sandwich ELISA, GBF1 coated as capture, HRP-GEC3 as detection, recombinant GM2AP in 2-fold serial dilution

binding: binds
B1: GEC3 (recombinant anti-GM2AP antibody, 21-4E3-C81 LC/21-4E3-C82 HC) (antibody, V domains shown)
VH: QIQLQQSGPELGKPGASVKISCKASDYTFTDFYISWVKQRPGQGLEWIGWIYPLDDHTKYNEKFKGKATLTVDISSNTVYMQLSSLTSEDSAVYFCARIYGYAMDYWGQGTSVTVSS
VL: DIVMTQSHKFMSTSVGDRVTITCKASQDVSTAVGWYQQKPGQSPKLLIYWASTRHTGVPDRFTGSRFGTDYTLTISSVQAEDLALYYCQQHYITPWTFGGGTKLE

binding: binds
B2: GBF1 (recombinant anti-GM2AP antibody, 21-2B5-F8 LC/21-2B5-F7 HC) (antibody, V domains shown)
VH: EIQLQQSGAELVRPGTSVKISCMASGYSFTGYNMNWVRQSHGRSLEWIGNINPYFGSPNYNQKFKGKATLTLDRSSNTAYMQLNRVTSEDSAVYYCASRQLGLGDTMDYWGQGTSVTVSS
VL: DIVMTQTASSVYVTPGESVSISCRSTKSLLHSNGDTYLYWFLQRPGQSPQLLIYRMSNLAPGVPDRFSGGGSGTAFTLRISRVEAEDVGVYYCMQHLEYPFTFGAGTKLE
